Test results reported in paper PMC7774954, “Interactomic affinity profiling by holdup assay: Acetylation and distal residues impact the PDZome-binding specificity of PTEN phosphatase” (PLoS ONE, 2020).
Results are given in words; binding and its absence hold for the method and conditions named.

Chains of the proteins cited; added tags and fusions are not shown. Lines headed by an entry give the natural chain unless they say otherwise; changes in a name come on top.
UniProt P60484: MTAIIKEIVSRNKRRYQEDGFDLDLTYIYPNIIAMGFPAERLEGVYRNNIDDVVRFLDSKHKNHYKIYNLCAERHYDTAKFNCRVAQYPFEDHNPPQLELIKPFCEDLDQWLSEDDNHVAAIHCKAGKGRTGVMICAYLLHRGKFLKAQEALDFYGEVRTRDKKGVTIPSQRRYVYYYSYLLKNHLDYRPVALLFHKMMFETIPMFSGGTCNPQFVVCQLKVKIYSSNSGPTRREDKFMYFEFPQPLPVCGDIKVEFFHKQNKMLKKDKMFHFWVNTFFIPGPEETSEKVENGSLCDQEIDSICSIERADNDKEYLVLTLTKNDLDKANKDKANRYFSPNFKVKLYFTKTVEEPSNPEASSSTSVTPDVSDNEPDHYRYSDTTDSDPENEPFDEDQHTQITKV

Columns and labels:
Assay in all cases: holdup assay; biotinylated PBM peptide on streptavidin resin, biotin resin as reference; tag-PDZ at 4 uM in crude E. coli lysate, 15 min, filtrate read by capillary electrophoresis; singlicate; BI converted into KD with the mean peptide concentration back-calculated from FP (34, 28, 25, 17 uM); LogKD is -log10 of KD in M, overall uncertainty ± 0.12; cells at the column's lower value are pairs without detected binding; only the target purified
PTEN_11 (human) = PTEN_11 (human) (UniProt P60484)
PTEN_13 (human) = PTEN_13 (human) (UniProt P60484)
PTEN_KR (human) = PTEN_KR (human) (UniProt P60484)
PTEN_Ac (human) = PTEN_Ac (human) (UniProt P60484)

Row | Binder | binding (PTEN_11 (human)) | binding (PTEN_13 (human)) | binding (PTEN_KR (human)) | binding (PTEN_Ac (human))
1 | GRIP1-1 (domain or fragment, UniProt Q9Y3R0 53-136) VVELMKKEGTTLGLTVSGGIDKDGKPRVSNLRQGGIAARSDQLDVGDYIKAVNGINLAKFRHDEIISLLKNVGERVVLEVEYEL | no binding (tested: lower value) | no binding (tested: lower value) | no binding (tested: lower value) | 
2 | INADL-10 (domain or fragment, UniProt Q8NI35 1676-1762) TVEINRELSDALGISIAGGRGSPLGDIPVFIAMIQASGVAARTQKLKVGDRIVSINGQPLDGLSHADVVNLLKNAYGRIILQVVADT | no binding (tested: lower value) | no binding (tested: lower value) | no binding (tested: lower value) | 
3 | INADL-2 (domain or fragment, UniProt Q8NI35 248-328) EVELINDGSGLGFGIVGGKTSGVVVRTIVPGGLADRDGRLQTGDHILKIGGTNVQGMTSEQVAQVLRNCGNSVRMLVARDP | no binding (tested: lower value) | no binding (tested: lower value) | no binding (tested: lower value) | 
4 | INADL-6 (domain or fragment, UniProt Q8NI35 1068-1160) IVEIFREPNVSLGISIVGGQTVIKRLKNGEELKGIFIKQVLEDSPAGKTNALKTGDKILEVSGVDLQNASHSEAVEAIKNAGNPVVFIVQSLS | no binding (tested: lower value) | no binding (tested: lower value) | no binding (tested: lower value) | 
5 | INADL-7 (domain or fragment, UniProt Q8NI35 1239-1322) IIELEKDKNGLGLSLAGNKDRSRMSIFVVGINPEGPAAADGRMRIGDELLEINNQILYGRSHQNASAIIKTAPSKVKLVFIRNE |  | no binding (tested: lower value) |  | 
6 | LNX1-1 (domain or fragment, UniProt Q8TBB1 274-359) SIKINRVDPSESLSIRLVGGSETPLVHIIIQHIYRDGVIARDGRLLPGDIILKVNGMDISNVPHNYAVRLLRQPCQVLWLTVMREQ |  | no binding (tested: lower value) |  | 
7 | LNX1-3 (domain or fragment, UniProt Q8TBB1 507-593) VVNIQKDPGESLGMTVAGGASHREWDLPIYVISVEPGGVISRDGRIKTGDILLNVDGVELTEVSRSEAVALLKRTSSSIVLKALEVK | no binding (tested: lower value) | no binding (tested: lower value) |  | no binding (tested: lower value)
8 | NHERF3-3 (domain or fragment, UniProt Q5T2W1 243-323) IVEMKKGSNGYGFYLRAGSEQKGQIIKDIDSGSPAEEAGLKNNDLVVAVNGESVETLDHDSVVEMIRKGGDQTSLLVVDKE |  | no binding (tested: lower value) |  | no binding (tested: lower value)
9 | NHERF3-4 (domain or fragment, UniProt Q5T2W1 378-458) LCRLAKGENGYGFHLNAIRGLPGSFIKEVQKGGPADLAGLEDEDVIIEVNGVNVLDEPYEKVVDRIQSSGKNVTLLVCGKK | no binding (tested: lower value) | no binding (tested: lower value) |  | no binding (tested: lower value)
10 | PDZD2-2 (domain or fragment, UniProt O15018 334-419) KMELLKESDGLGIQVSGGRGSKRSPHAIVVTQVKEGGAAHRDGRLSLGDELLVINGHLLVGLSHEEAVAILRSATGMVQLVVASKE |  | no binding (tested: lower value) |  | 
11 | DFNB31-1 (domain or fragment, UniProt Q9P202 140-223) LVSLRRAKAHEGLGFSIRGGSEHGVGIYVSLVEPGSLAEKEGLRVGDQILRVNDKSLARVTHAEAVKALKGSKKLVLSVYSAGR |  |  |  | no binding (tested: lower value)
12 | PDZD2-6 (domain or fragment, UniProt O15018 2750-2835) CVEVLKTSAGLGLSLDGGKSSVTGDGPLVIKRVYKGGAAEQAGIIEAGDEILAINGKPLVGLMHFDAWNIMKSVPEGPVQLLIRKH |  | no binding (tested: lower value) | no binding (tested: lower value) | no binding (tested: lower value)
13 | APBA1-1 (domain or fragment, UniProt Q02410 656-742) DVFIEKQKGEILGVVIVESGWGSILPTVIIANMMHGGPAEKSGKLNIGDQIMSINGTSLVGLPLSTCQSIIKGLKNQSRVKLNIVRC |  | no binding (tested: lower value) |  | no binding (tested: lower value)
14 | PDZRN3-1 (domain or fragment, UniProt Q9UPQ7 249-339) TLVLHRDSGSLGFNIIGGRPSVDNHDGSSSEGIFVSKIVDSGPAAKEGGLQIHDRIIEVNGRDLSRATHDQAVEAFKTAKEPIVVQVLRRT |  | no binding (tested: lower value) |  | no binding (tested: lower value)
15 | PDZRN3-2 (domain or fragment, UniProt Q9UPQ7 419-503) EVDLYRMNSQDKLGLTVCYRTDDEDDIGIYISEIDPNSIAAKDGRIREGDRIIQINGIEVQNREEAVALLTSEENKNFSLLIARP |  | no binding (tested: lower value) |  | no binding (tested: lower value)
16 | SDCBP2-1 (domain or fragment, UniProt Q9H190 108-187) EIHLCKDERGKTGLRLRKVDQGLFVQLVQANTPASLVGLRFGDQLLQIDGRDCAGWSSHKAHQVVKKASGDKIVVVVRDR |  | no binding (tested: lower value) |  | 
17 | DLG3-2 (domain or fragment, UniProt Q92796 226-311) EVNLLKGPKGLGFSIAGGIGNQHIPGDNSIYITKIIEGGAAQKDGRLQIGDRLLAVNNTNLQDVRHEEAVASLKNTSDMVYLKVAK |  | no binding (tested: lower value) |  | 
18 | APBA2-1 (domain or fragment, UniProt Q99767 568-654) ELQLEKHKGEILGVVVVESGWGSILPTVILANMMNGGPAARSGKLSIGDQIMSINGTSLVGLPLATCQGIIKGLKNQTQVKLNIVSC |  | no binding (tested: lower value) |  | no binding (tested: lower value)

The remaining lines, values ahead:

Row | binding (PTEN_11 (human)) | binding (PTEN_13 (human)) | binding (PTEN_KR (human)) | binding (PTEN_Ac (human)) | Binder
19 |  | no binding (tested: lower value) | no binding (tested: lower value) | no binding (tested: lower value) | SDCBP-2 (domain or fragment, UniProt O00560 198-273) TITMHKDSTGHVGFIFKNGKITSIVKDSSAARNGLLTEHNICEINGQNVIGLKDSQIADILSTSGTVVTITIMPAF
20 |  | no binding (tested: lower value) |  | no binding (tested: lower value) | SDCBP2-2 (domain or fragment, UniProt Q9H190 192-267) TVTMHKDSMGHVGFVIKKGKIVSLVKGSSAARNGLLTNHYVCEVDGQNVIGLKDKKIMEILATAGNVVTLTIIPSV
21 |  | no binding (tested: lower value) | no binding (tested: lower value) |  | TJP2-1 (domain or fragment, UniProt Q9UDY2 33-120) TVTLQKDSKRGFGIAVSGGRDNPHFENGETSIVISDVLPGGPADGLLQENDRVVMVNGTPMEDVLHSFAVQQLRKSGKVAAIVVKRPR
22 |  |  | no binding (tested: lower value) | no binding (tested: lower value) | TJP2-2 (domain or fragment, UniProt Q9UDY2 307-385) GVLLMKSRANEEYGLRLGSQIFVKEMTRTGLATKDGNLHEGDIILKINGTVTENMSLTDARKLIEKSRGKLQLVVLRDS
23 | no binding (tested: lower value) | no binding (tested: lower value) |  | no binding (tested: lower value) | TJP3-1 (domain or fragment, UniProt O95049 11-93) TATLSKDPRRGFGIAISGGRDRPGGSMVVSDVVPGGPAEGRLQTGDHIVMVNGVSMENATSAFAIQILKTCTKMANITVKRPR
24 | no binding (tested: lower value) | no binding (tested: lower value) |  | no binding (tested: lower value) | TJP3-2 (domain or fragment, UniProt O95049 195-272) SVLVKRRDSEEFGVKLGSQIFIKHITDSGLAARHRGLQEGDLILQINGVSSQNLSLNDTRRLIEKSEGKLSLLVLRDR
25 |  | no binding (tested: lower value) |  | no binding (tested: lower value) | TJP3-3 (domain or fragment, UniProt O95049 380-446) DTRVVRFLKGKSIGLRLAGGNDVGIFVSGVQAGSPADGQGIQEGDQILQVNDVPFQNLTREEAVQFL
26 |  | no binding (tested: lower value) | no binding (tested: lower value) | no binding (tested: lower value) | USH1C-2 (domain or fragment, UniProt Q9Y6N9 211-293) KVFISLVGSRGLGCSISSGPIQKPGIFISHVKPGSLSAEVGLEIGDQIVEVNGVDFSNLDHKEAVNVLKSSRSLTISIVAAAG
27 |  | no binding (tested: lower value) | no binding (tested: lower value) |  | USH1C-3 (domain or fragment, UniProt Q9Y6N9 452-537) DVRLLRIKKEGSLDLALEGGVDSPIGKVVVSAVYERGAAERHGGIVKGDEIMAINGKIVTDYTLAEAEAALQKAWNQGGDWIDLVV
